# Experimental data as given in publication PMC12040169 (PLOS Biology, 2025).
# The other results are listed elsewhere or left out.
# Test system: T1, CTL2-GFP (C. trachomatis L2/434/Bu, GFP-expressing)
# T1 construct: L2/434/Bu, GFP-expressing
# Parameters: species or system HeLa; Intracellular C. trachomatis growth in HeLa cells, bulk GFP fluorescence relative to DMSO
# Conditions: bulk GFP, single well; 28.5 h, 10 µM; inhibitor
row,SMILES,% of control remaining [%]
1,CN1CCC(NC(=O)c2cccc(OCC(=O)N3CCCCC3)c2)C1=O (stereo not drawn) [CBK307281],141.71
2,CC(=O)OCc1c(C)cc(C)c(CN(C)C(C)c2ccncn2)c1C (stereo not drawn) [CBK307315],108.164
3,CCOC(=O)c1nnc(-c2cccs2)nc1NC1CCCCC1 [CBK018110],114.811
4,COc1nccnc1N1CCN(Cc2ccc([N+](=O)[O-])cc2)CC1 [CBK084217],95.3639
5,Cc1ccc(CSCCNS(=O)(=O)c2ccc([N+](=O)[O-])cc2)cc1 [CBK268496],99.5825
6,Cn1c(=O)oc2ccc(C(=O)CSc3nnnn3-c3ccccc3)cc21 [CBK300488],149.961
7,c1cncc(CN2CCC[C@@H]2CN2CCCC2)c1 [CBK149101C],92.0143
8,O=C(O)CCN1CCN(S(=O)(=O)c2cccc([N+](=O)[O-])c2)CC1 [CBK268819],136.356
9,COc1cc2c(cc1OC)/C(=C(\C(=O)Nc1ccccc1)C(=O)N1CCCCC1)NC(C)(C)C2 [CBK087103],127.372
10,CS(=O)(=O)N[C@H]1CO[C@H]2[C@@H]1OC[C@H]2OC(=O)Nc1cccc2ccccc12 [CBK289469],122.233
11,COc1ccc(-c2ccc3c(c2)C(=O)N2CCN(C(=O)CC(C)(C)C)C[C@@H]2C(=O)N3)cc1 [CBK289584],147.78
12,COc1ccccc1C(NC(=O)C1CCN(C(=O)c2cccc(Cl)c2)CC1)c1ccccn1 (stereo not drawn) [CBK059637],202.12
13,O=C(O)c1cc(-c2ccc(OC(F)F)cc2)[nH]n1 [CBK288022],122.518
14,C=CCSc1nnc(CSc2nc3sc4c(c3c(=O)[nH]2)CCCC4)n1-c1ccccc1 [CBK263341],112.227
15,CN1C(=O)COc2ccccc2CCCC[C@@H]2[C@H]1CCCN2C(=O)CCCn1cccn1 [CBK292090],123.657
16,O=C(O)C1CCN(C(=O)CSc2nc3ccccc3o2)CC1 [CBK286557],93.4621
17,COCc1cc(C)nc2c1C(=O)NC(c1ccccc1C(=O)O)N2Cc1ccccc1 (stereo not drawn) [CBK286599],119.212
18,Cc1ccc(C(=O)N(C)CCN(C)C)c(NCc2cccnc2)n1 [CBK076348],182.861
19,CC(=O)Nc1ccccc1OCc1cc(-c2ccccc2)on1 [CBK296617],147.966
20,Cn1nc(CN(Cc2ccccc2C(F)(F)F)C2CC2)[nH]c1=O [CBK306391],105.962
21,COc1cc(/C=N/NC(=O)CCn2c3ccccc3c3ccccc32)ccc1O [CBK262332],121.635
22,O=C(NCc1cccnc1)c1csc2c1CCCC2 [CBK305029],125.79
23,Cc1nn(-c2ccccc2)c2[nH]c(=O)c(CNC(c3ccccc3)c3ccco3)cc12 (stereo not drawn) [CBK286449],111.304
24,CC(=O)Nc1cccc(Oc2cnc(-c3ccc(OC(F)(F)F)cc3)c(N)n2)c1 [CBK145119],100.516
25,CC1CCc2c(sc3ncnc(NCCCN4CCCCCC4=O)c23)C1 (stereo not drawn) [CBK305947],78.7158
26,COc1ccc(-c2[nH]c3ncccc3c2CN2CCCC2)cc1 [CBK285331],123.739

row,SMILES,% of control remaining [%]
1,CCCc1cc(O)nc(SCCCCn2ccnc2C)n1 [CBK306359],121.31
2,CCCCCC(=O)N[C@H]1CCC[C@H]1C(=O)O [CBK007807],106.412
3,CN(C)c1nc(N(C)C)nc(N(C#N)S(=O)(=O)c2ccccc2Cl)n1 [CBK269036],108.788
4,CCC1CCCCN1S(=O)(=O)c1ccc(NC(=O)Cn2c(=O)oc3ccccc32)cc1 (stereo not drawn) [CBK268069],116.674
5,O=C(CS(=O)(=O)c1ccccc1)Nc1cnc(-c2ccc(F)cc2)c(-c2ccoc2)n1 [CBK037168],125.617
6,COc1ccc(CNc2nc[nH]n2)c(OC)c1OC [CBK288129],121.404
7,Cc1ccc(S(=O)(=O)Nc2sccc2C(=O)O)cc1[N+](=O)[O-] [CBK042258],96.4725
8,CCc1cccc(C)c1NC(=O)CN(c1cccc(Cl)c1Cl)S(=O)(=O)c1ccc(C)cc1 [CBK268666],113.975
9,CC(C(=O)O)c1cc(C(=O)c2ccccc2)sc1-c1ccccc1 (stereo not drawn) [CBK260968],109.451
10,CC(=O)Nc1cccc(-n2nnnc2SCc2noc(C)n2)c1 [CBK304599],93.0244
11,Cc1cc(C)n(C(C)CC(=O)NC(C)c2nc3ccccc3s2)n1 (stereo not drawn) [CBK281469],108.518
12,NNC(=O)C(Oc1ccccc1)Oc1ccccc1 [CBK261210],103.093
13,O=C(Nc1ccc(-c2nc(-c3ccccc3)c3cc(NC(=O)c4cccs4)ccc3n2)cc1)c1cccs1 [CBK261547],100
14,N=C1NC(=O)/C(=C\c2cccc(C(=O)O)c2)S1 [CBK264832],100
15,COc1cccc(NC(=O)CCN2C(=O)c3ccccc3S2(=O)=O)c1 [CBK266003],88.4265
16,O=C(NCc1ccc(-c2csnn2)cc1)c1cccnc1 [CBK149309],124.209
17,O=C(NC(Cc1ccsc1)c1cccnc1)C1CCOC1 (stereo not drawn) [CBK285116],107.692
18,COc1ccc(-n2c(C)c(C#N)c3cc(Br)c(O)c(Br)c32)cc1 [CBK101113],95.1234
19,O=C(O)CNCCC(=O)c1ccc([N+](=O)[O-])cc1 [CBK020544],119.927
20,O=C(O)CCCn1cc(NC(=O)Cc2ccccc2)cn1 [CBK269821],126.252
21,COc1cccc(/C=C/C2=NN(c3cccc(F)c3)C(c3cccc(OC)c3OC)C2)c1OC (stereo not drawn) [CBK260983],81.2862
22,Cc1nn(C)c(C)c1CCC(=O)N1CCCCC1c1ncc(-c2cccc(F)c2)[nH]1 (stereo not drawn) [CBK291150],124.705
23,COc1ccc(-c2nn(C)c(=O)c3ccccc23)cc1CNC(=O)c1cc([N+](=O)[O-])ccc1OC [CBK266229],124.238
24,CC(=O)c1c(-c2cccc(C(=O)N(C)C3CCN(C)C3)c2)cnn1C (stereo not drawn) [CBK306633],124.665
25,Cc1ccc(S(=O)(=O)NCCn2cnc([N+](=O)[O-])n2)cc1 [CBK266270],144.822
26,COc1cnc(-c2cccc(C(F)(F)F)c2)c(NC(=O)Cc2ccccc2)n1 [CBK145308],133.985

# Among those listed so far, four have two or more sulfur atoms.
row,SMILES,% of control remaining [%]
5,Cc1ccc(CSCCNS(=O)(=O)c2ccc([N+](=O)[O-])cc2)cc1 [CBK268496],99.5825
14,C=CCSc1nnc(CSc2nc3sc4c(c3c(=O)[nH]2)CCCC4)n1-c1ccccc1 [CBK263341],112.227
7,Cc1ccc(S(=O)(=O)Nc2sccc2C(=O)O)cc1[N+](=O)[O-] [CBK042258],96.4725
13,O=C(Nc1ccc(-c2nc(-c3ccccc3)c3cc(NC(=O)c4cccs4)ccc3n2)cc1)c1cccs1 [CBK261547],100

# (more compounds)

row,SMILES,% of control remaining [%]
1,CC(C)C(=O)N1CCC(n2nc(-c3cccs3)oc2=O)CC1 [CBK282422],116.627
2,COC(=O)c1oc(-c2ccc(OC)cc2)c(-c2ccc(OC)cc2)c1C(N)=O [CBK001957],107.913
3,CN(C)CCNC(=O)c1cc(-c2ccncc2)nc2ccc(Br)cc12 [CBK267728],152.988
4,Cc1ccccc1-n1nnnc1C(c1ccccc1)N(C)Cc1cccc([N+](=O)[O-])c1 (stereo not drawn) [CBK262878],97.3848
5,Cc1cccc(NC(=O)C(c2ccccc2)N2CCOCC2)c1 (stereo not drawn) [CBK269331],69.022
6,CCC(C)(C)c1ccc(S(=O)(=O)N2CCCN(Cc3cn(C)c4ccccc34)CC2)cc1 [CBK062871],133.22
7,COc1cccc(/C=C/c2nc(C#N)c(NCCCN3CCOCC3)o2)c1 [CBK269506],97.6684
8,O=C(NCc1csc2c1CCCC2)N1CCC(CO)CC1 [CBK307476],86.6064
9,Nc1cccc(-c2cc(N3CCCC3CO)n3nccc3n2)c1 (stereo not drawn) [CBK037049],141.435
10,c1csc(-c2csc3ncnc(NCCCN4CCOCC4)c23)c1 [CBK267166],142.773
11,Cc1cc(C)n(C(C)CC(=O)NCc2ccccc2-n2ccnc2)n1 (stereo not drawn) [CBK281518],140.394
12,COc1ccc(C2(C(=O)N3CCC(c4ccncc4)CC3)CC2)cc1 [CBK285476],85.5449
13,CC(=O)Nc1cccc(C(=O)N2CCOC(CCc3ccccc3)C2)c1 (stereo not drawn) [CBK304629],128.333
14,Cc1cc(C)c(C(=O)N2CCN(CCNC(=O)C3CCCC3)CC2)[nH]1 [CBK305315],120.935
15,CCC1(CC)OC(N[C@@H](C)c2ccccc2C(F)(F)F)=NC1=O [CBK122691],126.367
16,CCN1CCN(C(=O)c2c(-c3ccccc3)noc2C)CC1 [CBK200251],133.356
17,CC1=NN(c2ccc(Cl)c(Cl)c2)C(=O)C1 [CBK067761],93.9954
18,CCCNC(=O)c1ccc(C)c(NC(=O)N[C@@H]2C[C@@H](CO)N(C)C2)c1 [CBK307451],136.442
19,CCn1c(CC2CCN(C(=O)CCCn3cnnn3)CC2)nn(C)c1=O [CBK306537],75.0661
20,O=C(Nc1cccc(N2CCNCC2)c1)c1coc2c1C(=O)CCC2 [CBK034113T],109.576
21,CCC1=NC(c2ccccc2Cl)N(O)C1(C)C (stereo not drawn) [CBK026466],139.578
22,CC(NC(=O)N1CCSCC1)c1ccc2c(c1)CC(=O)N2 (stereo not drawn) [CBK305093],111.412
23,Cc1csc(C(Cc2ccsc2)NC(=O)C2CC2C)n1 (stereo not drawn) [CBK282226],119.415
24,N#Cc1cc2c(=O)n(-c3ccccn3)ccc2[nH]c1=O [CBK288119],127.07
25,NC(Cc1ccc(Cl)cc1)C(=O)N(CCc1cc(C(F)(F)F)cc(C(F)(F)F)c1)c1cccc2ccccc12 (stereo not drawn) [CBK008674T],71.8934
26,O=C1N[C@]2(Cc3ccccc31)CN(Cc1ccccc1)C[C@H]2CO [CBK284743],128.291
